Some of these results come from one statement about several compounds together.
Assay: Kinematic viscosity (Anton Paar SVM 3001)
Assay type: physicochemical
Conditions: temperatures ranging from −20 to 40° C.
Experimental: All chemicals and reagent grade solvents were obtained from commercial vendors and were used as received. ^1H and ^13C NMR spectra were obtained at room temperature on a Bruker AV400 MHz spectrometer, with chemical shifts (6) referenced to the residual solvent signal (^1H and ^13C). GC/MS analysis was carried out using a Hewlett-Packard 6890 GC system equipped with a Hewlett-Packard 5973 mass selective detector. FT-IR measurements were collected on a Perkin Elmer Spectrum Two FT-IR, where a drop of compound was pressed between two KBr plates. FTIR shifts were: very strong (vs), strong (s), medium (m), and weak (w). Combustion calorimeter measurements were performed using an IKA C1 compact combustion calorimeter, the NHOC was calculated by taking into consideration the hydrogen content and subtracting from the gross heat of combustion. DSC measurements were performed using a Netzsch DCS 204 F1 Phoenix. Viscosity and density measurements were performed using an Anton Paar SVM 3001. Elemental analysis was performed by Atlantic Microlabs. YSI measurements were conducted at Yale University.
The physical properties of the five distinct dioxolanes obtained were analyzed to understand their potential as suitable fuel components.^4-5, 8, 16, 18-20 A tabulated summary of these properties are provided in Table 2. The first metric considered was viscosity. […] If a fuel's viscosity falls outside of the ASTM D 975 specification (>4 mm^2 s^−1), it often leads to poor atomization of the fuel, which results in poor combustion and a subsequent loss of power and decrease in fuel economy.^7 In this respect, compounds 1-5 could be used to thin biodiesel to meet standards for petroleum diesel.

Row | SMILES | kinematic viscosities
1 | CCCCCCCC1OC(C)C(C)O1 (centres unmarked) [Compound 5, 4,5-Dimethyl-2-heptyl-1,3-dioxolane] | significantly lower than biodiesel, H1-H3, and petroleum diesel
2 | CCC(CC)C1OC(C)C(C)O1 (centres unmarked) [Compound 1, 2-(1-Ethylpropyl)-4,5-dimethyl-1,3-dioxolane] | significantly lower than biodiesel, H1-H3, and petroleum diesel
3 | CCCCCC1OC(C)C(C)O1 (centres unmarked) [Compound 4, 4,5-Dimethyl-2-pentyl-1,3-dioxolane] | significantly lower than biodiesel, H1-H3, and petroleum diesel
4 | CCCCC(CC)C1OC(C)C(C)O1 (centres unmarked) [Compound 2, 2-(1-Ethylpentyl)-4,5-dimethyl-1,3-dioxolane] | significantly lower than biodiesel, H1-H3, and petroleum diesel
5 | CCCC1OC(C)C(C)O1 (centres unmarked) [Compound 3, 4,5-Dimethyl-2-propyl-1,3-dioxolane] | significantly lower than biodiesel, H1-H3, and petroleum diesel

From patent publication US20210107886A1, “PREPARATION OF CYCLIC ACETALS FOR FUEL” (TRIAD NATIONAL SECURITY, LLC, priority 2019, published 2021)
